# Source: paper PMC5996148
# By UniProt entry, the sequences of proteins in these tests, tags left out. Where a name states a change or a piece, a line headed by the entry shows the natural chain unless it says otherwise.
# UniProt P50579: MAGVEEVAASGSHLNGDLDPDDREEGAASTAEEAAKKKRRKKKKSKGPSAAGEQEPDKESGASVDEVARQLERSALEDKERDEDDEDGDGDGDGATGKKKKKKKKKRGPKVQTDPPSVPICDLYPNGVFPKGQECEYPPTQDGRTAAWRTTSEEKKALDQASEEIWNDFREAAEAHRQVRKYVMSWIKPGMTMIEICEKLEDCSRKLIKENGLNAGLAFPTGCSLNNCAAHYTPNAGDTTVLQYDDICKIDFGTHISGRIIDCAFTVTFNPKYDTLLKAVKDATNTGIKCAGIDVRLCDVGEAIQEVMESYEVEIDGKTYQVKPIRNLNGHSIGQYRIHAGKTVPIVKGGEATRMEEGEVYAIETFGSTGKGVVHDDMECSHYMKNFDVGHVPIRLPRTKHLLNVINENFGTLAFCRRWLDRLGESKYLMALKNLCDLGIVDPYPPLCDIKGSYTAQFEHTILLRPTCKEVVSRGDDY
# UniProt Q9UBP6: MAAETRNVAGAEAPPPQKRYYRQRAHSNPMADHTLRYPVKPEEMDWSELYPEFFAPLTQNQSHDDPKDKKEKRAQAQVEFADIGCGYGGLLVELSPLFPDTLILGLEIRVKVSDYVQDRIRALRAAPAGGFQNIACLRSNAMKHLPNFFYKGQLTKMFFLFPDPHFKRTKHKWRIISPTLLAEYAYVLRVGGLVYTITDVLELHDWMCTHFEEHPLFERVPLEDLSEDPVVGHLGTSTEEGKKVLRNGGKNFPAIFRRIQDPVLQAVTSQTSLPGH
# Values joined by “and” are separate entries in the source; they are usually repeats but may differ in a detail not shown here. Equal values may be shown once. The list shows a part of the results. For some assays here: The source does not settle which construct or isoform was used.
# How the values were obtained:
# Experiment in all cases: protein microarray (ProtoArray v5.0), streptavidin-Alexa Fluor 647
# Conditions in all cases: 3'-biotin; 20 mM Tris (pH 7.5), 5 mM MgCl2, 100 mM KCl, 0.1% Tween-20, A/T-rich and random oligonucleotide blockers; temperature not stated; high values mean tight binding
# MED28 (human) = system: MED28 (human)
# MEF2B (human) = system: MEF2B (human)
# MEIS2 (human) = system: MEIS2 (human)
# MEIS3 (human) = system: MEIS3 (human)
# METAP2 = METAP2 (UniProt P50579)
# METTL1 = METTL1 (UniProt Q9UBP6)
# MFGE8 (human) = system: MFGE8 (human)
# MGC10334 (human) = system: MGC10334 (human)
# MGC10600 (human) = system: MGC10600 (human)
# MGC10955 (human) = system: MGC10955 (human)
# MGC13057 (human) = system: MGC13057 (human)
# MGC23270 (human) = system: MGC23270 (human)
# MGC23985 (human) = system: MGC23985 (human)
# MGC24103 (human) = system: MGC24103 (human)
# MGC24125 (human) = system: MGC24125 (human)
# MGC29506 (human) = system: MGC29506 (human)
# MGRN1 (human) = system: MGRN1 (human)
# MIER1 (human) = system: MIER1 (human)
# MIR16 (human) = system: MIR16 (human)
# MLC1 (human) = system: MLC1 (human)
sequence,measurement,setting,value
GGGGACAGGGGTATGGGGAGGGG [G4-3 biotinylated (CtG)],binding signal,MED28 (human),-0.335 z-score
same,binding signal,MEF2B (human),-0.326 z-score
same,binding signal,MEIS2 (human),-0.34 z-score and -0.339 z-score
same,binding signal,MEIS3 (human),-0.336 z-score
same,binding signal,METAP2,8.14 z-score
same,binding signal,METTL1,3.98 z-score
same,binding signal,MFGE8 (human),-0.312 z-score
same,binding signal,MGC10334 (human),-0.331 z-score
same,binding signal,MGC10600 (human),-0.328 z-score
same,binding signal,MGC10955 (human),-0.306 z-score
same,binding signal,MGC13057 (human),-0.33 z-score
same,binding signal,MGC23270 (human),-0.309 z-score
same,binding signal,MGC23985 (human),-0.33 z-score
same,binding signal,MGC24103 (human),-0.331 z-score
same,binding signal,MGC24125 (human),-0.337 z-score
same,binding signal,MGC29506 (human),-0.306 z-score
same,binding signal,MGRN1 (human),-0.335 z-score
same,binding signal,MIER1 (human),-0.284 z-score
same,binding signal,MIR16 (human),-0.322 z-score
same,binding signal,MLC1 (human),-0.325 z-score

# Quoted at random: 2 records from the list, in no set order.
sequence,measurement,setting,value
GGGGACAGGGGTATGGGGAGGGG [G4-3 biotinylated (CtG)],binding signal,MGC29506 (human),-0.306 z-score
same,binding signal,MEIS2 (human),-0.34 z-score and -0.339 z-score
